The whole screen tested about 390,000 compounds, of which about 4,000 (1%) were called active. The shares of active, inactive and inconclusive entries below differ from those in the screen. Calls come from the whole dose curve; as a rule, active = well fitted inhibition curve with a large enough effect; inconclusive = small, poorly fitted or top-dose-only effect, or another doubt; inactive = no such curve, though single readings can be large or run the other way. A potency beside an inconclusive call is a rough fit, not a confirmed value.
biological target: DNA polymerase iota (Homo sapiens) (UniProt Q9UNA4); test: qHTS for Inhibitors of Polymerase Iota; conditions: Pol iota fluorescent replication assay, 10 min; series mostly up to 115 µM; activity, negative = inhibition: at the top concentration
Method in brief: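 Pol iota at 10 nM preincubated 15 min with compounds at room temperature; reaction started with fluorescent substrate, 50 nM final. Fluorescence read kinetically at 0 and 10 min; buffer-only wells as negative control.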
Potency is the fitted concentration of half-maximal effect.

Protein sequences, listed by entry. Tags and fused reporters are not part of them. Lines headed by an entry give the natural chain unless they say otherwise; changes in a name come on top.
UniProt Q9UNA4: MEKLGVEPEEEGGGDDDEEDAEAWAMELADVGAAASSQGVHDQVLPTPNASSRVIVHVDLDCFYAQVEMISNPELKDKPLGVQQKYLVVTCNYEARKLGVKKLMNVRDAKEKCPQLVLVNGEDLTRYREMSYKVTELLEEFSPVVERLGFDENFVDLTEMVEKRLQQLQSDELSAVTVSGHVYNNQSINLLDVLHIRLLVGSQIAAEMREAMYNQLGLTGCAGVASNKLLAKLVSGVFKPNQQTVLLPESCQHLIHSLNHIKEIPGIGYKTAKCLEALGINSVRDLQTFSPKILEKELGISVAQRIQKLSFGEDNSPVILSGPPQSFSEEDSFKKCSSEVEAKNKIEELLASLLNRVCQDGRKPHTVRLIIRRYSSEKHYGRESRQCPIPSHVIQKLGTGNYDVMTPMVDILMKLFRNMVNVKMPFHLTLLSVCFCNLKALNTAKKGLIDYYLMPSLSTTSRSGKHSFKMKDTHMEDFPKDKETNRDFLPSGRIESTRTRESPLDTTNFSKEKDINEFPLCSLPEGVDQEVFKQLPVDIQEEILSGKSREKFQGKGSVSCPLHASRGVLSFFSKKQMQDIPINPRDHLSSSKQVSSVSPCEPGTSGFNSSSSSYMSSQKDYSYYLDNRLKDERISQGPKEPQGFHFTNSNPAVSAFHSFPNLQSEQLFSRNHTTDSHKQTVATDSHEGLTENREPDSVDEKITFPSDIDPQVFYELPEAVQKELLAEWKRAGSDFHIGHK

Potency, active:
COc1ccc(S(=O)(=O)Nc2ccc(F)cc2)cc1N(C)S(=O)(=O)c1ccc(Cl)cc1 89.1 µM, O=C1/C(=C\c2ccc(-c3ccccc3[N+](=O)[O-])o2)C(c2ccccc2)=NN1c1ccccc1 10 µM

Potency, inconclusive:
COc1ccc(-c2csc(NC(=O)CSc3n[nH]c(C)n3)n2)cc1 89.1 µM [inhibitor, partial curve, poor fit], Cc1cc(C)n(-c2nc(-c3ccccc3)cs2)n1 28.2 µM [inhibitor, single point], CN(C)c1ccc(/C=C/c2cc3ccccc3c[n+]2C)cc1 44.7 µM [inhibitor, partial curve, poor fit], Nn1c(Cc2ccccc2F)nnc1SCC(=O)Nc1cccc(S(=O)(=O)NC2=NCCCCC2)c1 11.2 µM [inhibitor, partial curve, poor fit], Cc1c(C(c2cc(O)ccc2Cl)c2c(C)n(C)n(-c3ccccc3)c2=O)c(=O)n(-c2ccccc2)n1C 15.8 µM [inhibitor, partial curve, poor fit], O=C(Cc1ccc2ccccc2c1)NC(Cc1ccccc1)C(=O)O (configuration not stated) 25.1 µM [inhibitor, partial curve, poor fit], CCC1(C)NC(c2ccc3c(c2)OCO3)=CC(c2ccccc2O)N1 (configuration not stated) 3.16 µM [inhibitor, partial curve, poor fit], O=C(C[n+]1cc(-c2ccc(Cl)c(Cl)c2)n2c1CCC2)N1c2ccccc2Sc2ccccc21 112 µM [inhibitor, single point], COc1ccc(/C=N/NC(=O)c2ccn[nH]2)cc1COc1ccc(F)cc1 89.1 µM [inhibitor, partial curve, poor fit], COc1ccccc1NC(=O)COC(=O)C1C2CC3OC(=O)C1C3C2 (configuration not stated) 89.1 µM [inhibitor, single point], CCOC(=O)C1=NN(c2ccc(OC)cc2)C(c2ccccc2)CC1=O (configuration not stated) 17.8 µM [inhibitor, single point], c1ccc(CCCNCC2COc3ccccc3O2)cc1 (configuration not stated) 89.1 µM [inhibitor, single point], COc1ccccc1N1CC(C(=O)Nc2nnc(SCC(=O)N3CCCC3)s2)CC1=O (configuration not stated) 31.6 µM [inhibitor, partial curve, poor fit], Cc1ccc(CSC2=Nc3ccccc3C3=NC(CC(=O)NCc4ccco4)C(=O)N23)cc1 (configuration not stated) 25.1 µM [inhibitor, single point], CC(C)CCN1CCN(Cc2ccoc2)CC1CCO (configuration not stated) 4.47 µM [inhibitor, full curve, poor fit], CN(C(=O)c1ccc2c(c1)S(=O)(=O)N=C1CCCCCN12)c1ccccc1 25.1 µM [inhibitor, partial curve, poor fit], CCOC(=O)N1CCc2c(sc3c2c(=O)n(-c2ccc(CC)cc2)c(=O)n3CC(=O)c2ccccc2)C1 39.8 µM [inhibitor, single point], CC(C)C(=O)N(c1ccc2oc(=O)sc2c1)S(=O)(=O)c1ccccc1 3.55 µM [inhibitor, full curve, poor fit], COc1cc2c(NC3CCN(C(C)C)CC3)nc(N3CCCN(C)CC3)nc2cc1OCCCN(C)C 39.8 µM [inhibitor, partial curve], CCn1c(CSc2nc3ccccc3s2)n[nH]c1=S 112 µM [inhibitor, single point], O=C(CSc1nc2cc3ccccc3cc2[nH]1)Nc1ccc(F)cc1 79.4 µM [inhibitor, partial curve, poor fit], O=C(COC(=O)c1ccc([N+](=O)[O-])o1)NC1CCCc2ccccc21 (configuration not stated) 10 µM [inhibitor, partial curve, poor fit], COc1nccc(NCc2ccccc2)c1C#N 89.1 µM [inhibitor, single point], COc1ccc(OC)c(-c2csc(-c3cccs3)n2)c1 89.1 µM [inhibitor, single point], Cc1onc(-c2ccccc2Cl)c1C(=O)N1CCN(c2nc3ccccc3s2)CC1 28.2 µM [inhibitor, single point], C[C@H]1CCC(=O)N([C@H](CSc2ccc(Br)cc2)Cc2ccccc2)CC1 89.1 µM [inhibitor, single point], COC(=O)c1ccc(COc2cccc3c2CCN(Cc2cccc(C)c2)C3=O)o1 112 µM [inhibitor, partial curve, poor fit], Cc1nnc(NC(=O)C2CC(=O)N(c3ccc4c(c3)OCCO4)C2)s1 (configuration not stated) 89.1 µM [inhibitor, partial curve, poor fit], CC1Cc2ccccc2N1S(=O)(=O)c1cccc(C(=O)N2CCN(c3ncccn3)CC2)c1 (configuration not stated) 100 µM [inhibitor, partial curve, poor fit], O=C1c2ccccc2C(=O)C1c1ccnc2ccccc12 11.2 µM [inhibitor, partial curve, poor fit], CC(=O)Nc1ccccc1NS(=O)(=O)c1ccccc1[N+](=O)[O-] 56.2 µM [inhibitor, single point], Cc1sc2nc(C3CC3)nc(SCC(=O)NCc3ccco3)c2c1C 8.91 µM [inhibitor, full curve, poor fit], Cc1oc(-c2cccc(Cl)c2)nc1CN1CCC(C(=O)N2CCN(c3ccccc3F)CC2)CC1 11.2 µM [inhibitor, partial curve, poor fit], Cc1onc(-c2ccccc2)c1C(=O)N1CCN(C(=O)c2ccco2)CC1 89.1 µM [inhibitor, partial curve, poor fit], COC(=O)CN(c1nc(C)c(Br)c(OC)n1)S(=O)(=O)c1ccc(C)cc1 5.01 µM [inhibitor, full curve, poor fit], CN1CCc2c(sc(NC(=O)c3ccc([N+](=O)[O-])o3)c2C(N)=O)C1 25.1 µM [inhibitor, single point], C#CCOCCOCCOCCNc1nc(N2CCOCC2)nc(N2CCN(C(=O)Cn3cc(CC(C)O)nn3)CC2)n1 (configuration not stated) 10 µM [inhibitor, partial curve, poor fit], N#C/C(=C\c1ccc(O)c(O)c1)C(=O)N1CCc2ccccc21 56.2 µM [inhibitor, partial curve, poor fit], CC[C@@]1(C(=O)OC)N[C@H](CN(C)C(=O)c2ccc(C)cc2)[C@@H]2C(=O)N(C)C(=O)[C@@H]21 35.5 µM [inhibitor, single point], O=S(=O)(c1ccc(F)cc1)N1CN(Cc2ccco2)c2nc3ccccc3nc21 14.1 µM [inhibitor, full curve, poor fit], O=C(NNC(=O)c1cc2cc3ccccc3nc2s1)c1ccc(F)cc1 39.8 µM [inhibitor, partial curve, poor fit], COc1ccc(NC(=S)NC(C)c2ccncc2)cc1OC (configuration not stated) 100 µM [inhibitor, single point], CC(=O)c1csc(CS(=O)(=O)c2ccccn2)n1 22.4 µM [inhibitor, partial curve, poor fit], Cc1cccc(CNC(=O)CCc2nnc(C3CCCCC3)o2)c1 89.1 µM [inhibitor, single point], CN1c2ccccc2C(C)(C)C12CCCC(=O)N2 (configuration not stated) 56.2 µM [inhibitor, partial curve, poor fit], Cc1ccc(Cn2c(CCNc3nc(-c4ccc(Cl)c([N+](=O)[O-])c4)cs3)nc3cc(C(=O)NCCCO)ccc32)cc1 12.6 µM [inhibitor, full curve, poor fit], C/C(=N/NC(=O)CNc1ccc(C)cc1)c1ccc(Br)s1 3.55 µM [inhibitor, full curve]

activity, negative = inhibition, inactive:
COc1ccccc1CNC(=O)C1CCN(Cc2cc3ccccc3n2Cc2cccc(C)c2)CC1 26.7%, COc1ccc2c(c1)CC(NC(=O)Nc1ccc(NC(C)=O)cc1)CO2 (configuration not stated) 10.1%, O=C(CSc1nnc(-c2ccncc2)n1-c1ccccc1)Nc1ccc(Br)cc1 -11.6%, Cc1ccc[n+](C(C)C(=O)Nc2ccc(C)c(C)c2)c1 (configuration not stated) -3.22%, CC(C)c1ccc(S(=O)(=O)c2nnn3c2nc(N2CCOCC2)c2sccc23)cc1 14.7%, Cc1ccccc1OCC(=O)Nc1c(C)ccc2nsnc12 -9.33%, Cc1cc(N2CCN(c3ccccc3F)CC2)nc2cc(O)ccc12 33.1%, Cc1ccc(SCCC(=O)NCc2ccncc2)cc1 15.2%, COc1cc(Cl)c(NC(=O)CCc2nc3cccnc3n2-c2ccccc2)c(OC)c1 12.4%, CN(C)c1ccc(/C=N\Nc2ccc([N+](=O)[O-])cc2[N+](=O)[O-])cc1Br 15%, CCC(Sc1nc(-c2ccccc2)[nH]c1S(=O)(=O)c1ccc(C)cc1)C(=O)O (configuration not stated) 21.2%, Cc1cc(C)cc(NC(=O)c2ccc3oc(=O)c(S(=O)(=O)c4ccc(F)cc4)cc3c2)c1 -1.2%, CCCCN(C(=O)c1ccc2c(c1)OCO2)c1ccccc1 62.6%

— PubChem BioAssay AID588590 (National Center for Advancing Translational Sciences (NCATS), 2011)
